# Results reported in PubChem BioAssay AID2685 (National Center for Advancing Translational Sciences (NCATS), 2010).
# Some of the results follow. These are further read-outs of the screen, such as a control signal, another cell line or another target. No call is given for them. Most of these compounds were active or inconclusive in the main read-out, so they are no random draw. Potencies come from curve fits of mixed quality, noted in brackets.
# Assay: qHTS Assay for Lipid Storage Modulators in Drosophila S3 Cells;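 as to cell number change: cells counted by Cell Tracker Red CMTPX staining in the red channel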
# Details: BODIPY lipid droplet fluorescence, 18-24 h; for cell number change: measured here: cell count max response, cells fed with added oleic acid
# How it was run: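 Laser-scanning cytometry quantifies lipid droplet accumulation (500–530 nm total intensity; droplet/cell object ratio) in oleic acid-fed (400 uM added) Drosophila S3 cells treated with a concentration series. 20 uM Triacsin C defined 100% inhibition.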
# [1] = measured here: lipid fluorescence (Fed channel) AC50, cells fed with added oleic acid
# [2] = measured here: cell number channel AC50, cells fed with added oleic acid
SMILES,cell number change,AC50 [1],AC50 [2]
COCCCn1cnc2c(c1=O)c1nc3ccccc3nc1n2-c1ccccc1,-14.5%,"0.58 µM [rising, partial curve]",–
Oc1ccc(/C=N/n2c(-c3ccccc3)n[nH]c2=S)cc1Br,-23%,–,–
CCCOc1ccc(-c2nc(OC)c3ccccc3n2)cc1,8.77%,"5.17 µM [rising, partial curve]",–
O=C(Nc1ccc(Oc2ccccc2)cc1)c1cnc2n(c1=O)CCS2,14.4%,"0.58 µM [rising, single point]",–
CCOC(=O)C1CCN(c2cc3c(cc2NC(=O)c2ccc(OC)c(OC)c2)n(C)c(=O)n3C)CC1,-24.5%,–,–
COC(=O)C1=C(C)N(CC2CC2)C(=NCc2cccc(Cl)c2)N[C@H]1c1ccccc1,6.77%,"6.51 µM [falling, single point]",–
O=C1Nc2ccccc2N(O)N1c1ccc(Cl)cc1,0.0279%,"0.058 µM [falling, full curve, poor fit]",–
O=C(CN1CCN(c2ncccn2)CC1)N1CCCc2c1c(=O)oc1ccc(O)cc21,-24.4%,"14.6 µM [falling, partial curve, poor fit]",–
O=C(O)c1cccc(Nc2ncnc3ccccc23)c1,–,"23.1 µM [falling, partial curve]",–
CCN(CC)C(=O)CSc1nnc(CCNC(=O)OC(C)(C)C)o1,–,–,"0.58 µM [rising, single point]"
COc1cccc(C(=O)NN2CC(O)=C(c3nc(C)cs3)C2=N)c1,17.2%,"6.51 µM [rising, full curve, poor fit]",–
COc1ccc(CNC(=O)CCCCCn2c(SCC#N)nc3cc4c(cc3c2=O)OCO4)cc1,-157%,"0.58 µM [rising, single point]",–
CC(=O)Nc1ccc(C(=O)NNC(=O)c2ccccc2-n2cccc2)cc1,3.41%,"14.6 µM [falling, single point]",–
COC(=O)C1=C(C(=O)OC)SC(=C2C(=S)C(C)(C)N(C(=O)C3CC3)c3ccccc32)S1,-96.5%,–,"23.1 µM [falling, partial curve, poor fit]"
Cc1ccc(/C=C2\SC(=S)N(CCCC(=O)Nc3ccccc3C(=O)O)C2=O)cc1,–,"1.3 µM [rising, full curve]",–
CCCCCCCN1C(Nc2ccccc2)=NC[C@@H]1Cc1ccccc1,-31.7%,–,"23.1 µM [falling, single point]"
CC(C)C[C@@]12C(=O)N(c3cccc(Br)c3)C(=O)N1[C@H](c1ccc(F)cc1)[C@@H]1C(=O)N(C3CCCCC3)C(=O)[C@@H]12,6.07%,–,"6.51 µM [falling, single point]"

# Record cards (already shown):
# `O=C(CN1CCN(c2ncccn2)CC1)N1CCCc2c1c(=O)oc1ccc(O)cc21` in the list: cell number change: -24.4%; AC50 [1]: 14.6 µM [falling, partial curve, poor fit]
# `O=C(Nc1ccc(Oc2ccccc2)cc1)c1cnc2n(c1=O)CCS2` in the list: cell number change: 14.4%; AC50 [1]: 0.58 µM [rising, single point]
